Data published in article PMC6604950.
No constants are given. Whether binding was seen depends on the method and setting. Binding seen in cells or lysates may run through a third protein. Some entries that bind do so weakly or less than the wild type. Each block holds one binder with its values, some of them ahead of it.

Sequences of proteins named here, by UniProt entry; tags and fusion partners are left off.
UniProt P72772: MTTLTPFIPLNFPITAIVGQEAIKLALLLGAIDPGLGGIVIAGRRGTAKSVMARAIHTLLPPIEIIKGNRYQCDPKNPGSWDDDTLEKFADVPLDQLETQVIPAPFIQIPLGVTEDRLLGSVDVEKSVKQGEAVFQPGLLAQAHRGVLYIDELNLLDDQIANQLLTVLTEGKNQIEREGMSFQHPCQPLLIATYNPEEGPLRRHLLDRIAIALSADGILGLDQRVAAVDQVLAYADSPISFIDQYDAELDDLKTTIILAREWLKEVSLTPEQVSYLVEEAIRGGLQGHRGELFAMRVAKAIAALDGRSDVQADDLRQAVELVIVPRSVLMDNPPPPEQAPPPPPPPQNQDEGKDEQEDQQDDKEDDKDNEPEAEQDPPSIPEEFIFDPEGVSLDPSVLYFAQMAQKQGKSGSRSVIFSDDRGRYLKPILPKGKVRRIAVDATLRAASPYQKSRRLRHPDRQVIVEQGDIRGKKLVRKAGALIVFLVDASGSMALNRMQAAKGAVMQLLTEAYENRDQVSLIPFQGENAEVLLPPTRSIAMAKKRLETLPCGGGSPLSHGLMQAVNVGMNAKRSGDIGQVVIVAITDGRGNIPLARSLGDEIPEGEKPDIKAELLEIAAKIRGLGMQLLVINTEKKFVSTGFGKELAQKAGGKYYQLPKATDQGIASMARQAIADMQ

Target: FLAG-ChlD (Synechocystis ChlD with an N-terminal 3xFLAG tag) (Synechocystis sp. PCC 6803) (UniProt P72772)
Assay: co-IP; anti-FLAG-M2 agarose column; soluble and 1.5% β-DDM-solubilised membrane fractions of Synechocystis; buffer A (25 mM sodium phosphate, 50 mM NaCl, 10 mM MgCl2, 10% glycerol, pH 7.4; +0.25% β-DDM for membranes); eluted with 3xFLAG peptide; immunoblot

binding: binds
B1: ChlH (endogenous, Synechocystis) (protein, UniProt P73020 1-1331)
chain: MFTNVKSTIRRVDPEALNGRQLLKVVYVVLESQYQSALSAAVRNINRTNSSLAIQLTGYLIEELRDPENYANFKHDVSEANLFIASLIFIEDLADKVVEAVTPYRDNLDAAIVFPSMPQVMRLNKMGSFSMAQLGQSKSAIAQFMKKRKENSSGAGFQDAMLKLLRTLPTVLKYLPVEKAQDARNFMLSFQYWLGGSQENLENFLLMLTDKYVYPDLGLDKLVNYQEPVVYPDMGIWHPLSMQMFENVKDYLEWYNQRPDISEDLKDPLAPCIGLIMQRTHLVTGDDAHYVGMVQELEAMGARVICVFSGGLDFSKPVNEYFWDKSVNGVEPLPIVDAVVSLTGFALVGGPARQDHPRAIESLKKLNRPYMCALPLVFQTTEEWEASDLGLHPIQVALQIAIPELDGAIEPIILSGRDGSTGRAIALQDRLEAIAQRAMKWANLRKKPKLDKKVAITVFSFPPDKGNVGTAAYLDVFGSIYEVMKGLQGNGYDVQDLPGSAKELMEAVIHDAQAQYNSPELNIAHRMSVEQYERLTPYSVRLEENWGKPPGHLNSDGQNLLIYGKEFGNVFIGVQPTFGYEGDPMRLLFSRSASPHHGFAAYYTYLNHIWKADAVLHFGTHGSLEFMPGKQMGMSGECYPDNLIGTIPNLYYYAANNPSEATIAKRRGYASTISYLTPPAENAGLYKGLQELNELIGSYQTLKDSGRGIQIVNTIMDQARICNLDQDVNLPDINAEEMDQGQRDTIVGSVYRKLMEIESRLLPCGLHVIGQPPSAEEAIATLVNIASLDREDEGIWALPTLIAESIGRNMEEIYRNSDKGILADVELLQDITLATRAAVAALVQEQINADGRVSFVSKLNFFKIGKKAPWVKSLCDSGYPNVNEEKLKPLFEYLEFCLEQVCADNEFGGLLQALEGEYVLPGPGGDPIRNPNVLPTGKNIHALDPQSIPTLAAVQSAKVVVDRLLERQRAENGGNYPETIASVLWGTDNIKTYGESLAQIMWMVGAKPVPDALGRVNKIELVPLEELGRPRIDVVVNCSGVFRDLFINQMNLLDQAVKLAAEADEPLEMNFVRKHALEQAEEMGIGVREAATRIFSNASGSYSSNVNLAVENSSWEDESELQEMYLKRKSFAFNSDNPGMMDQNRDMFERALKTADATFQNLDSSEISLTDVSHYFDSDPTKLISTLRDDGKAPAAYIADTTTANAQVRTLSETVRLDARTKLLNPKWYEGMLSHGYEGVRELSKRLVNTMGWSATAGAVDNWVYEDANSTFIKDEEMCKRLMDLNPNSFRRMVSTLLEVNGRGYWETSDENLERLQELYQEVEDRIEGVE

binding: binds
B2: ChlI (endogenous, Synechocystis) (protein, UniProt P51634 1-357)
chain: MTATLAAPSKTRRVVFPFTAIVGQDEMKLALLLNVIDPKIGGVMIMGDRGTGKSTTIRALADLLPEIEVVANDPFNSSPSDPEMMSEEVRIRVDSQEPLSIVKKKVTMVDLPLGATEDRVCGTIDIEKALSEGVKAFEPGLLAKANRGILYVDEVNLLDDHLVDVLLDSAAGGWNTVEREGISIRHPARFVLVGSGNPEEGELRPQLLDRFGMHAEIRTVREPELRVKIVEQRTEFDQNPHPFCDQYQTEQEALQAKIVNAQNLLPQVTIDYDYRVKVSEVCAELDVDGLRGDIVTNRAAKALAAFEGRTEVTVDDISRVIVLCLRHRLRKDPLESIDSGSKVEKVFKRVFGVVDEA
